# From the supplement of paper PMC6411743
# Protein sequences, listed by entry. Tags and fused reporters are not part of them. Lines headed by an entry give the natural chain unless they say otherwise; changes in a name come on top.
# UniProt Q13330: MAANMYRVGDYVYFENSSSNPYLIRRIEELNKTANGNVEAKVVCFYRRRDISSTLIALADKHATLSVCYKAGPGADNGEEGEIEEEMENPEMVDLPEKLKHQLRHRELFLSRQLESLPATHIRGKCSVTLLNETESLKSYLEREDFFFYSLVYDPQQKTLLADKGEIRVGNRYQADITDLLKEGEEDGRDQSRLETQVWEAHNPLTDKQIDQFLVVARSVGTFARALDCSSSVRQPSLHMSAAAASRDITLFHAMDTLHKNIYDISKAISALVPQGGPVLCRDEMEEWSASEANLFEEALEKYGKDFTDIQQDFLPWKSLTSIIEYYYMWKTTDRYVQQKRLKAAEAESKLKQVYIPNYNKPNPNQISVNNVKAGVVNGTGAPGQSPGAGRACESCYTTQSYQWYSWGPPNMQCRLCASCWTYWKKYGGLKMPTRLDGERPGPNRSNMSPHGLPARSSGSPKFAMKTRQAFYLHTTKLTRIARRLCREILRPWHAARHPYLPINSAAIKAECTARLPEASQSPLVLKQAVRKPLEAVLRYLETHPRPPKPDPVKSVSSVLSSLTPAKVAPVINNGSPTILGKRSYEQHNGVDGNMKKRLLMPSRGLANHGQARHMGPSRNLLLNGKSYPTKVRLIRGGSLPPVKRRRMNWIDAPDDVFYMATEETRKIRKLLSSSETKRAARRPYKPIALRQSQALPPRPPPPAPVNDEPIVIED
# UniProt Q12899: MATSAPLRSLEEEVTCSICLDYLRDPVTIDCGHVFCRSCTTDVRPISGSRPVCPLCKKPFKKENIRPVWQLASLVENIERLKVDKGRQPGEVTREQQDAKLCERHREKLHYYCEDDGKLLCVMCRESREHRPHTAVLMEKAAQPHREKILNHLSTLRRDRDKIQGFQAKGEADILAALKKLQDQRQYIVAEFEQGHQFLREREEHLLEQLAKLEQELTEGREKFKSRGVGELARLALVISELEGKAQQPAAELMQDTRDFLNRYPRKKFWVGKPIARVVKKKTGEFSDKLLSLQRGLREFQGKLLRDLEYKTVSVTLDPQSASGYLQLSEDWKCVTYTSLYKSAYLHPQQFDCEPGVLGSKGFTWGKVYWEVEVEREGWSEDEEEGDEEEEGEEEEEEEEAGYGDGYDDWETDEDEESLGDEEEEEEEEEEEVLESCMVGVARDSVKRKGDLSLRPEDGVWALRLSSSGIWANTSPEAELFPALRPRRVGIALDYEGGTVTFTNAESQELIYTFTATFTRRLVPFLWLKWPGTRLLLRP
# UniProt Q12931: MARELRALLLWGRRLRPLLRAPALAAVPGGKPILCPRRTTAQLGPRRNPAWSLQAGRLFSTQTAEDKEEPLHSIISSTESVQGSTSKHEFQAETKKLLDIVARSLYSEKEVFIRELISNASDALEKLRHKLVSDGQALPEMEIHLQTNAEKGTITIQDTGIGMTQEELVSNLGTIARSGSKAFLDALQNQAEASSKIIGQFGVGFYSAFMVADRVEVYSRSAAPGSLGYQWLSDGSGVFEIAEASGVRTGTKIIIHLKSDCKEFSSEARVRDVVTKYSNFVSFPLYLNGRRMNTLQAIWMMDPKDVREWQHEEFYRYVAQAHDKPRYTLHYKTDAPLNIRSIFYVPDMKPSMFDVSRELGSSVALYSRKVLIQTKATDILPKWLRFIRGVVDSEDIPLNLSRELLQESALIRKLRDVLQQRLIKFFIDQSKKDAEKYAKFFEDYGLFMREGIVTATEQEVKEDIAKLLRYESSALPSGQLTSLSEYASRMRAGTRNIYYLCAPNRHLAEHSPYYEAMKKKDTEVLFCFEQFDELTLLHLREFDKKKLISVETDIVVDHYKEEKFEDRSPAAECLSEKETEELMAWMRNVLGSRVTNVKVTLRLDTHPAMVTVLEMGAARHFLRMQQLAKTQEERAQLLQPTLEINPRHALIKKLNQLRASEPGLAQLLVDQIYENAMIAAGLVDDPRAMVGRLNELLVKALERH
# UniProt Q13630: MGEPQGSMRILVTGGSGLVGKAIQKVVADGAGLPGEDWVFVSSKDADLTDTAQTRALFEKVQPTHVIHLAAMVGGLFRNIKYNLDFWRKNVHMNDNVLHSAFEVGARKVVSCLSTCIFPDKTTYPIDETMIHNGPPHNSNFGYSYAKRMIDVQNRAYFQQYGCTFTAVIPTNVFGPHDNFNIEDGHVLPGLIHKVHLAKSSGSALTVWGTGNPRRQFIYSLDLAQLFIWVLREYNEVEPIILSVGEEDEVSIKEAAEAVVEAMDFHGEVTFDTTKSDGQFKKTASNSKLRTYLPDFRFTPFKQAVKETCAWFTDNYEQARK
# UniProt Q13867: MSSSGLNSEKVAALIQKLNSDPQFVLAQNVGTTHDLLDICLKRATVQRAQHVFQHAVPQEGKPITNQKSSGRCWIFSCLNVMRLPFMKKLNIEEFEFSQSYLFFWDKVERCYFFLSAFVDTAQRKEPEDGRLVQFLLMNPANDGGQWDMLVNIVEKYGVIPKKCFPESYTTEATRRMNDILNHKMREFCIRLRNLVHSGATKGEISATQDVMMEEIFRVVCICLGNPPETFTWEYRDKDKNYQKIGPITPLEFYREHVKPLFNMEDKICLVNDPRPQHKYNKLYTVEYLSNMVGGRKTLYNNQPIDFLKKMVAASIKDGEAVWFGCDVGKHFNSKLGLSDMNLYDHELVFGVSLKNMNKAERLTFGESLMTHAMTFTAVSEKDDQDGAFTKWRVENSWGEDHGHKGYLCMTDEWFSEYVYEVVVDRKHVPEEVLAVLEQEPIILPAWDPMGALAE
# UniProt Q13356: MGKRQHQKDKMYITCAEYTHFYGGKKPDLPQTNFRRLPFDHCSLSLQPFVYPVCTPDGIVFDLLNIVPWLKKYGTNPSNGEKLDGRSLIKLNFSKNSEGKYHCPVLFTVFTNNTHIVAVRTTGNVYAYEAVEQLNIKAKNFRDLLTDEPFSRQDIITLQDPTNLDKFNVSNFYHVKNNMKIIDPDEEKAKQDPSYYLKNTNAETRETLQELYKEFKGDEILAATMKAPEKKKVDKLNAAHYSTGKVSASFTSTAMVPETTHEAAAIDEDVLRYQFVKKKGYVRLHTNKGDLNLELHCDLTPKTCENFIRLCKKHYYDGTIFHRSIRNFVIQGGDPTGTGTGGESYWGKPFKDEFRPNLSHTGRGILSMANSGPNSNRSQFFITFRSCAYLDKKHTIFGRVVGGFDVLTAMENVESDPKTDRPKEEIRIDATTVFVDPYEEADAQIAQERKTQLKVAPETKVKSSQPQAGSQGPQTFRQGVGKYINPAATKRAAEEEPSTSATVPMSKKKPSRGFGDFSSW
# UniProt Q14139: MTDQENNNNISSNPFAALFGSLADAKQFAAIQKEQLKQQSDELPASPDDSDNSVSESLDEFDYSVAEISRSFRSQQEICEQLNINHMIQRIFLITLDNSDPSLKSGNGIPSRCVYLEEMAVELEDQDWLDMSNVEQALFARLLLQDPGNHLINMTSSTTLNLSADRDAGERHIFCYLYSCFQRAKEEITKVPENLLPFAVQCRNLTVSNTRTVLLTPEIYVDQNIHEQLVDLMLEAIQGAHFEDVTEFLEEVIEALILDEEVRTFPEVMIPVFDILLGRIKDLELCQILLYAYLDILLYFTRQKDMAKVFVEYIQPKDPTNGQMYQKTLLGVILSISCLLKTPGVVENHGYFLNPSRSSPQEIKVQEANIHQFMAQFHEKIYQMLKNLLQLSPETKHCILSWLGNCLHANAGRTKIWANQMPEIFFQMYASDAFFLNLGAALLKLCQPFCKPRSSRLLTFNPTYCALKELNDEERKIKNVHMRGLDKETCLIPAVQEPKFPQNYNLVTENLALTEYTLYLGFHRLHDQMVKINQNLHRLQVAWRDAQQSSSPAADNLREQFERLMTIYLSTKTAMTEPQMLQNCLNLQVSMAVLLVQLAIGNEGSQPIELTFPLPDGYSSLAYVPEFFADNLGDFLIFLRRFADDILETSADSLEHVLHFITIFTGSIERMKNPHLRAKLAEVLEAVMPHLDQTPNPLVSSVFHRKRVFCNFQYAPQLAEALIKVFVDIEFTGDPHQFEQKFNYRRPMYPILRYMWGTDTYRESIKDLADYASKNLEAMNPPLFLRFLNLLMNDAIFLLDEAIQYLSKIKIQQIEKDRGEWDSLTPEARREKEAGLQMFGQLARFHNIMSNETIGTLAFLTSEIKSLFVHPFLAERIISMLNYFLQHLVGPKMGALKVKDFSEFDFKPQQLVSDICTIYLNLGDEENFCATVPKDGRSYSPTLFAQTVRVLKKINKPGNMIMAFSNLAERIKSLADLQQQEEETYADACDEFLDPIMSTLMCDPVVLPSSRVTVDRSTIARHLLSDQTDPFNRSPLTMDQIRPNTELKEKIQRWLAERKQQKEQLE
# UniProt Q13888: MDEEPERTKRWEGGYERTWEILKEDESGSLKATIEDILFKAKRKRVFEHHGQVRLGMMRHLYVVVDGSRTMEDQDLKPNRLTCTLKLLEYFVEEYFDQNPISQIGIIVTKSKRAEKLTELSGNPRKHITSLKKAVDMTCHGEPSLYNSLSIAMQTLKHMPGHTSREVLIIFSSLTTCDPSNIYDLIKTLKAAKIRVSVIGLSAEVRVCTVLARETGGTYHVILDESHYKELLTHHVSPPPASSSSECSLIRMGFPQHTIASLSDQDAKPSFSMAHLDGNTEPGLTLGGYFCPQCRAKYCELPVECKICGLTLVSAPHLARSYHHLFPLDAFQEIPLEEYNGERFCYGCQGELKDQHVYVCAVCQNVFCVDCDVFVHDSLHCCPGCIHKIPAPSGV
# UniProt Q04323: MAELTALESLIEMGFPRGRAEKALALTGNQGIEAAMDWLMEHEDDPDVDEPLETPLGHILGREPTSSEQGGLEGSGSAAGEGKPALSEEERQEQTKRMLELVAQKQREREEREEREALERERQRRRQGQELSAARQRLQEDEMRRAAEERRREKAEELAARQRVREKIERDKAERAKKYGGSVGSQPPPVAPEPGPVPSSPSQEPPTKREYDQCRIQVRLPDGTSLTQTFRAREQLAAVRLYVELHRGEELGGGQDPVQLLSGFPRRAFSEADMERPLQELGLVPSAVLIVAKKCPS
# UniProt Q13427: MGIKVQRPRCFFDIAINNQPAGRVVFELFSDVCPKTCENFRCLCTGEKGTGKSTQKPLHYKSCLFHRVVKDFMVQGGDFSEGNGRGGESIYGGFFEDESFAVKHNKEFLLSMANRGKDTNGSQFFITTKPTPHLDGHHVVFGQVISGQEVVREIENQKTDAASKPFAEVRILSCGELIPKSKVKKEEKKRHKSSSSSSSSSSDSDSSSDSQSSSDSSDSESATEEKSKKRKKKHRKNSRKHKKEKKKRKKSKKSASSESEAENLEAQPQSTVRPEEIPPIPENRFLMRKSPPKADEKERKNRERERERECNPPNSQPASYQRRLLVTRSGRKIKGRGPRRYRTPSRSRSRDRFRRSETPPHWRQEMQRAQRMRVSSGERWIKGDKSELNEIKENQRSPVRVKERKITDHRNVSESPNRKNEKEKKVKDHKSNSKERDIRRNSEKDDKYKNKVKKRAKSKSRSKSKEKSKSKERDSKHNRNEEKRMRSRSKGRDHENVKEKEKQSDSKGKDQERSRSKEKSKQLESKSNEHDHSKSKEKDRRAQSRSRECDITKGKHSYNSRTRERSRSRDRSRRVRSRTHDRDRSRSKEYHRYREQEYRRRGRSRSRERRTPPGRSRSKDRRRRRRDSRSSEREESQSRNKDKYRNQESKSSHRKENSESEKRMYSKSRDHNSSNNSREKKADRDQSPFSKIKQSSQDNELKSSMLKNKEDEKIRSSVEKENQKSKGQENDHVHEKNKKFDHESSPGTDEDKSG
# UniProt Q12788: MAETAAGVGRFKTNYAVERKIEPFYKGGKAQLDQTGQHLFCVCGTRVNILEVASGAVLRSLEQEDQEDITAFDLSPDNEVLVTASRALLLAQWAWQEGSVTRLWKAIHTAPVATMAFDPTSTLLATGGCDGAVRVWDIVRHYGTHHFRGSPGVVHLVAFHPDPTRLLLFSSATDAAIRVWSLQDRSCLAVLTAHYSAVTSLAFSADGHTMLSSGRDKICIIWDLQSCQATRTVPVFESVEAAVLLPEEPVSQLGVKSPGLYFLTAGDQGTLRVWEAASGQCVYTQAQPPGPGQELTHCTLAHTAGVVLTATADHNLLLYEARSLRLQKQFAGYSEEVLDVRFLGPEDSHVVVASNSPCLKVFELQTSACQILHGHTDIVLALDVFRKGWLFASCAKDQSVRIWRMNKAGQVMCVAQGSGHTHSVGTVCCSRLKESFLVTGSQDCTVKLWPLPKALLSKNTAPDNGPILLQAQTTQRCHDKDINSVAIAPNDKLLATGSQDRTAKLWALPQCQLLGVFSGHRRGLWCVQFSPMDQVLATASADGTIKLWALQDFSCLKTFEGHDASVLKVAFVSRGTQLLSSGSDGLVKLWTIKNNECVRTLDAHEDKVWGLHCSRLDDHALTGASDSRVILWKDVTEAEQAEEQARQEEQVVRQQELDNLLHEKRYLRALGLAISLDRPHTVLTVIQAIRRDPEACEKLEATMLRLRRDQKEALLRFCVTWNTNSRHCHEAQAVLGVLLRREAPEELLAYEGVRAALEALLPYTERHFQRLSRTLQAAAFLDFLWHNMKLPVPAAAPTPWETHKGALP
# ± gives the standard deviation of the averaged measurements. This is a selection; strong and weak results do not stand in their true shares. Most values lie at the level of the controls, where differences are scatter.
# Compound: Nc1ncnc2c1ncn2[C@@H]1O[C@H](COP(=O)(O)OP(=O)(O)OP(=O)(O)O)[C@@H](O)[C@H]1O [adenosine triphosphate]
# Assay: NP40-soluble protein abundance relative to vehicle (solubility fold change) (ratio); higher = more soluble protein in presence of ATP
# How it was run: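 Jurkat crude lysate (Dounce-homogenised) was treated with eight concentrations from 0.1 to 10 mM for 10 min at room temperature, then 3 min at 37 °C. It was solubilised with 0.8% NP40 and benzonase (60 min, 4 °C) and ultracentrifuged, and the supernatant was TMT-labelled for LC-MS/MS. Intensities were vsn-normalised, and the value is the fold change against the NP40-processed vehicle per replicate, from three independent experiments.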
target,measurement,setting,value
UniProt Q01850 and related entries,NP40-soluble protein abundance,concentration: 0.1mM,0.991 ± 0.078
same,NP40-soluble protein abundance,concentration: 0.5mM,0.922 ± 0.017
TARBP1 (UniProt Q13395),NP40-soluble protein abundance,concentration: 0.1mM,1.02 ± 0.019
same,NP40-soluble protein abundance,concentration: 0.5mM,1.001 ± 0.0096
MAD2L1 (UniProt Q13257),NP40-soluble protein abundance,concentration: 0.1mM,1.05 ± 0.12
same,NP40-soluble protein abundance,concentration: 0.5mM,1.03 ± 0.052
UniProt Q13330 and related entries,NP40-soluble protein abundance,concentration: 0.1mM,1.02 ± 0.057
same,NP40-soluble protein abundance,concentration: 0.5mM,1.06 ± 0.024
TRIM26 (UniProt Q12899),NP40-soluble protein abundance,concentration: 0.1mM,0.969 ± 0.14
same,NP40-soluble protein abundance,concentration: 0.5mM,0.901 ± 0.048
MTMR2 (UniProt Q13614),NP40-soluble protein abundance,concentration: 0.1mM,1.02 ± 0.057
same,NP40-soluble protein abundance,concentration: 0.5mM,1.06 ± 0.034
UniProt Q0VDD8-4,NP40-soluble protein abundance,concentration: 0.1mM,0.862 ± 0.08
same,NP40-soluble protein abundance,concentration: 0.5mM,0.84 ± 0.023
same,NP40-soluble protein abundance,concentration: 1mM,0.837 ± 0.098
same,NP40-soluble protein abundance,concentration: 2mM,0.884 ± 0.028
same,NP40-soluble protein abundance,concentration: 4mM,0.9026 ± 0.0016
same,NP40-soluble protein abundance,concentration: 6mM,0.9241 ± 0.0037
same,NP40-soluble protein abundance,concentration: 8mM,0.956 ± 0.13
same,NP40-soluble protein abundance,concentration: 10mM,1.06 ± 0.059
FKBP5 (UniProt Q13451),NP40-soluble protein abundance,concentration: 0.1mM,1.01 ± 0.032
same,NP40-soluble protein abundance,concentration: 0.5mM,1.03 ± 0.066
UniProt Q12931 and related entries,NP40-soluble protein abundance,concentration: 0.1mM,1.03 ± 0.076
same,NP40-soluble protein abundance,concentration: 0.5mM,1.04 ± 0.046
UniProt Q03933-2|Q03933,NP40-soluble protein abundance,concentration: 0.1mM,1.02 ± 0.074
same,NP40-soluble protein abundance,concentration: 0.5mM,1.11 ± 0.1
same,NP40-soluble protein abundance,concentration: 1mM,0.912 ± 0.029
same,NP40-soluble protein abundance,concentration: 2mM,1.05 ± 0.065
same,NP40-soluble protein abundance,concentration: 4mM,1.05 ± 0.2
same,NP40-soluble protein abundance,concentration: 6mM,1.09 ± 0.17
same,NP40-soluble protein abundance,concentration: 8mM,1.04 ± 0.048
same,NP40-soluble protein abundance,concentration: 10mM,1.01 ± 0.051
TSTA3 (UniProt Q13630),NP40-soluble protein abundance,concentration: 0.1mM,0.969 ± 0.06
same,NP40-soluble protein abundance,concentration: 0.5mM,0.951 ± 0.028
BLMH (UniProt Q13867),NP40-soluble protein abundance,concentration: 0.1mM,1.04 ± 0.098
same,NP40-soluble protein abundance,concentration: 0.5mM,1.05 ± 0.072
UniProt Q13795 and related entries,NP40-soluble protein abundance,concentration: 0.1mM,1.005 ± 0.0087
same,NP40-soluble protein abundance,concentration: 0.5mM,0.991 ± 0.023
same,NP40-soluble protein abundance,concentration: 1mM,0.95 ± 0.024
same,NP40-soluble protein abundance,concentration: 2mM,0.961 ± 0.015
same,NP40-soluble protein abundance,concentration: 4mM,0.932 ± 0.025
same,NP40-soluble protein abundance,concentration: 6mM,0.962 ± 0.046
same,NP40-soluble protein abundance,concentration: 8mM,0.9416 ± 0.0073
same,NP40-soluble protein abundance,concentration: 10mM,0.945 ± 0.039
UniProt Q09666 and related entries,NP40-soluble protein abundance,concentration: 0.1mM,0.981 ± 0.016
same,NP40-soluble protein abundance,concentration: 0.5mM,0.991 ± 0.054
UniProt Q13530 and related entries,NP40-soluble protein abundance,concentration: 0.1mM,1.03 ± 0.063
same,NP40-soluble protein abundance,concentration: 0.5mM,0.957 ± 0.023
PPIL2 (UniProt Q13356),NP40-soluble protein abundance,concentration: 0.1mM,1.2 ± 0.047
same,NP40-soluble protein abundance,concentration: 0.5mM,1.27 ± 0.037
UniProt Q12769 and related entries,NP40-soluble protein abundance,concentration: 0.1mM,1.04 ± 0.065
same,NP40-soluble protein abundance,concentration: 0.5mM,1.06 ± 0.054
KRR1 (UniProt Q13601),NP40-soluble protein abundance,concentration: 0.1mM,1.02 ± 0.014
same,NP40-soluble protein abundance,concentration: 0.5mM,1.13 ± 0.055
same,NP40-soluble protein abundance,concentration: 1mM,1.12 ± 0.012
same,NP40-soluble protein abundance,concentration: 2mM,1.16 ± 0.043
same,NP40-soluble protein abundance,concentration: 4mM,1.23 ± 0.066
same,NP40-soluble protein abundance,concentration: 6mM,1.27 ± 0.047
same,NP40-soluble protein abundance,concentration: 8mM,1.29 ± 0.026
same,NP40-soluble protein abundance,concentration: 10mM,1.42 ± 0.033
UniProt Q12912 and related entries,NP40-soluble protein abundance,concentration: 0.1mM,1.041 ± 0.0096
same,NP40-soluble protein abundance,concentration: 0.5mM,1.02 ± 0.097
UniProt Q14139 and related entries,NP40-soluble protein abundance,concentration: 0.1mM,1.03 ± 0.066
same,NP40-soluble protein abundance,concentration: 0.5mM,1.02 ± 0.044
Q13888 and related entries (UniProt Q6P1K8+Q13888),NP40-soluble protein abundance,concentration: 0.1mM,1.07 ± 0.028
same,NP40-soluble protein abundance,concentration: 0.5mM,1.11 ± 0.076
UniProt Q04323 and related entries,NP40-soluble protein abundance,concentration: 0.1mM,0.962 ± 0.045
same,NP40-soluble protein abundance,concentration: 0.5mM,0.921 ± 0.12
UniProt Q13557-12|D6R938 and related entries,NP40-soluble protein abundance,concentration: 0.1mM,1.08 ± 0.027
same,NP40-soluble protein abundance,concentration: 0.5mM,1.05 ± 0.093
PPIG (UniProt Q13427),NP40-soluble protein abundance,concentration: 0.1mM,1.04 ± 0.091
same,NP40-soluble protein abundance,concentration: 0.5mM,1.44 ± 0.17
same,NP40-soluble protein abundance,concentration: 1mM,1.61 ± 0.22
same,NP40-soluble protein abundance,concentration: 2mM,1.69 ± 0.27
same,NP40-soluble protein abundance,concentration: 4mM,1.78 ± 0.32
same,NP40-soluble protein abundance,concentration: 6mM,1.99 ± 0.49
same,NP40-soluble protein abundance,concentration: 8mM,1.85 ± 0.43
same,NP40-soluble protein abundance,concentration: 10mM,1.95 ± 0.46
UniProt Q06787-5|Q06787-6|Q06787-8|Q06787 and related entries,NP40-soluble protein abundance,concentration: 0.1mM,1.22 ± 0.15
same,NP40-soluble protein abundance,concentration: 0.5mM,1.11 ± 0.02
same,NP40-soluble protein abundance,concentration: 1mM,1.16 ± 0.14
same,NP40-soluble protein abundance,concentration: 2mM,1.27 ± 0.1
same,NP40-soluble protein abundance,concentration: 4mM,1.56 ± 0.17
same,NP40-soluble protein abundance,concentration: 6mM,1.83 ± 0.13
same,NP40-soluble protein abundance,concentration: 8mM,2.14 ± 0.19
same,NP40-soluble protein abundance,concentration: 10mM,2.48 ± 0.15
TBL3 (UniProt Q12788),NP40-soluble protein abundance,concentration: 0.1mM,1.01 ± 0.013
same,NP40-soluble protein abundance,concentration: 0.5mM,1.06 ± 0.056
same,NP40-soluble protein abundance,concentration: 1mM,1.15 ± 0.06
same,NP40-soluble protein abundance,concentration: 2mM,1.3 ± 0.04
same,NP40-soluble protein abundance,concentration: 4mM,1.58 ± 0.036
same,NP40-soluble protein abundance,concentration: 6mM,1.59 ± 0.11
same,NP40-soluble protein abundance,concentration: 8mM,1.89 ± 0.1
same,NP40-soluble protein abundance,concentration: 10mM,2.01 ± 0.089
